PubChem BioAssay AID1259326 | Drosophila RNAi Screening Center – 2017

- Screen: 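Knock-downs that shift cellular ATP after a high zinc chloride dose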
- System: Drosophila S2R+ cells
- Reagents: long dsRNA against Drosophila genes
- Timing: about 5 days (4 days of RNAi, then 1 day of zinc)
- Challenge: zinc chloride added to 15 mM final for one day
- Measurement: 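Cellular ATP measured by luciferase light as a viable-cell proxy, after 4 days of RNAi and 1 day in 15 mM zinc chloride; replicate z-scores averaged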
- Reading the numbers: averaged z-score: higher = more ATP than other wells, i.e. more surviving cells, after zinc; ATP luminescence: higher = more ATP, i.e. more surviving cells
- Call rule: 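Called active when the averaged z-score lies outside -1.5 to 1.5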
The deposit covers 573 reagents; this is a part drawn at random. 39 of all reagents (6.8%) were called active. 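All actives have raised ATP, meaning more surviving cells; in these data active calls sit at averaged z-scores near 1.5 or above.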 Raw values are not corrected between plates. Entries without a mark were called inactive. The numbers tell different reagents against one gene apart. The record does not give: the amount of reagent.

gene | reagent | averaged z-score | ATP luminescence, replicate 1 | ATP luminescence, replicate 2
Atg1 | 1 | 0.769 | 1.11e5 | 68520
Atg1 | 2 | 0.444 | 82517 | 87560
Atg1 | 3 | -0.342 | 88289 | 73563
Lkb1 | 1 | -0.0831 | 85101 | 86393
Lkb1 | 2 | 0.319 | 67132 | 77165
Lkb1 | 3 | 0.27 | 86016 | 82740
sff | 1 | -0.0965 | 84609 | 76204
sff | 2 | -0.0482 | 66531 | 75913
sff | 3 | 0.147 | 90287 | 70767
Agps | 1 | 0.199 | 1.05e5 | 79086
Agps | 2 | 0.289 | 79137 | 91677
Agps | 3 | -0.158 | 63843 | 80024
CG8858 | 1 | -0.29 | 67252 | 88947
CG8858 | 2 | -0.144 | 72328 | 68782
comt | 1 | -0.255 | 86102 | 75673
comt | 2 | 0.0194 | 85499 | 72955
comt | 3 | 0.0704 | 69344 | 75690
sgg | 1 | 0.19 | 1.04e5 | 86651
sgg | 2 | 0.796 | 82225 | 87131
sgg | 3 | 0.265 | 87960 | 68384
CG9485 | 1 | -0.526 | 74352 | 95400
CG9485 | 2 | -0.175 | 65451 | 75673
Atg13 | 1 | -0.109 | 83117 | 93227
Atg8b | 1 | 1.15 | 1.17e5 | 59757
Atg8b | 2 | 0.429 | 89344 | 81367
Atg8b | 3 | 0.0904 | 67955 | 85227
mahj | 1 | 1.55 (active) | 84815 | 1.19e5
mahj | 2 | 2.3 (active) | 1.30e5 | 1.16e5
mahj | 3 | 1.75 (active) | 97144 | 1.13e5
beta'COP | 1 | 2.6 (active) | 1.38e5 | 1.23e5
beta'COP | 2 | 2.55 (active) | 1.26e5 | 1.30e5
beta'COP | 3 | 2.48 (active) | 1.44e5 | 99071
Buffy | 1 | 0.249 | 87648 | 97201
Buffy | 2 | -0.255 | 65262 | 70476
Cln3 | 1 | -0.211 | 95074 | 64336
Cln3 | 2 | -0.0271 | 84215 | 75970
Cln3 | 3 | -0.157 | 66463 | 81899
Rpt6R | 1 | 0.074 | 79755 | 98392
Rpt6R | 2 | -0.216 | 66428 | 76871
Ggamma30A | 1 | -0.169 | 93049 | 79172
Ggamma30A | 2 | -0.18 | 82945 | 71025
Ggamma30A | 3 | -0.398 | 66428 | 66771
Rab9Fb | 1 | 0.293 | 94902 | 1.05e5
Rab9Fb | 2 | -0.104 | 72191 | 71827
Pi3K92E | 1 | -0.0939 | 90339 | 78724
Pi3K92E | 2 | -0.636 | 85193 | 45988
shi | 1 | -0.228 | 89395 | 70651
shi | 2 | -0.282 | 72105 | 80064
shi | 3 | 0.0836 | 61352 | 79937
Pi3K68D | 1 | 0.0645 | 91420 | 86325
Pi3K68D | 2 | 0.0371 | 66840 | 78031
Pi3K68D | 3 | 0.136 | 87457 | 73752
Nipsnap | 1 | 0.202 | 91523 | 93427
Nipsnap | 2 | 0.198 | 78571 | 82174
mTor | 1 | -0.606 | 77971 | 78482
mTor | 2 | -0.087 | 72791 | 68988
mTor | 3 | -0.457 | 86102 | 39872
Aldh | 1 | -0.196 | 73666 | 95022
Aldh | 2 | -0.165 | 69430 | 77045
Pfk | 1 | -0.622 | 83580 | 68641
Pfk | 2 | -0.393 | 82688 | 67256
Pfk | 3 | -0.452 | 63359 | 70339
Nek2 | 1 | -0.486 | 63479 | 63221
Nek2 | 2 | -0.0931 | 99637 | 71333
Nek2 | 3 | -0.139 | 80544 | 73083
zip | 1 | 0.133 | 76975 | 76547
zip | 2 | 0.118 | 99157 | 73232
zip | 3 | 0 | 88074 | 68521

In a second layout: 5 of the entries above
| gene | reagent | averaged z-score | ATP luminescence, replicate 1 | ATP luminescence, replicate 2 |
| --- | --- | --- | --- | --- |
| mahj | 3 | 1.75 (active) | 97144 | 1.13e5 |
| beta'COP | 1 | 2.6 (active) | 1.38e5 | 1.23e5 |
| beta'COP | 2 | 2.55 (active) | 1.26e5 | 1.30e5 |
| beta'COP | 3 | 2.48 (active) | 1.44e5 | 99071 |
| Buffy | 1 | 0.249 | 87648 | 97201 |
